These results are taken from article PMC10093038.

The chains behind the UniProt entries cited, without tags or fusion partners.
UniProt Q9Y2R2: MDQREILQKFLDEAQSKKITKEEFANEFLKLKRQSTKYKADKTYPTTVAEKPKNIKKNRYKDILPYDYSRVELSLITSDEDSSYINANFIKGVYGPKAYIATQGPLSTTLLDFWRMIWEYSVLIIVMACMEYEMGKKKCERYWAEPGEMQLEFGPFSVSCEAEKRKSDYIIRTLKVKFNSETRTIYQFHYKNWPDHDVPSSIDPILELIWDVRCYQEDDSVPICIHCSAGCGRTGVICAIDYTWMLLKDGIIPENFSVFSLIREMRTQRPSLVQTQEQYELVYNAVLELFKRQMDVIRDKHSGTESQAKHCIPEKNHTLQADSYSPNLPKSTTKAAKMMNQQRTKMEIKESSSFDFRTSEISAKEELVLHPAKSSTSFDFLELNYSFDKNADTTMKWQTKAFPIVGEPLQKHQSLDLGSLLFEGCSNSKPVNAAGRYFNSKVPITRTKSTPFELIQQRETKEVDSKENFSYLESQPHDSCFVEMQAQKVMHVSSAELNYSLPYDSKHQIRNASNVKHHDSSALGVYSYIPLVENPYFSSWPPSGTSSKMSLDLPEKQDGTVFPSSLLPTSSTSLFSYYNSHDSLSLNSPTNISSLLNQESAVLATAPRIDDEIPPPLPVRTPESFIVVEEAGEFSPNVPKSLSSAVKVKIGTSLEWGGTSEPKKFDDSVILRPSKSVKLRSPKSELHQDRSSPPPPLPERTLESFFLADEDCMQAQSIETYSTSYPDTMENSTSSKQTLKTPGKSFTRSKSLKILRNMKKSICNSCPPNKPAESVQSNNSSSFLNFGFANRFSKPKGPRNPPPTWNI

This experiment has as its target T1, THY1 (CD90), exogenous, stably expressed in NPC cells (human) (UniProt P04216).
T1 sequence: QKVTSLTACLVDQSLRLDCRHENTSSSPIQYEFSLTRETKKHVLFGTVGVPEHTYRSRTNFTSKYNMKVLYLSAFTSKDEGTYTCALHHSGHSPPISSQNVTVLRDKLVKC
In words: affinity purification with mass spectrometry; immunoprecipitates resolved by SDS-PAGE, Coomassie-stained bands excised, in-gel trypsin digestion, LTQ Velos, MASCOT search; cell lines only indicated in the figure.

No constants are given. Whether binding was seen depends on the method and setting. In cells and extracts the contact can be indirect. These calls come from enrichment with a bait or labelling near it, and not all partners need be listed.

Turning to “platelet-derived growth factor receptor β (PDGF-Rβ) (from UniProt P09619 33-1106)”, the binding entry is “binds”.
The entry for “protein tyrosine phosphatase nonreceptor type 22 (PTPN22) (from UniProt Q9Y2R2 1-807) (enzyme)” is “binds”.
